Results are given in words; binding and its absence hold for the method and conditions named. Binding seen in cells or lysates may run through a third protein.
Target: T1, MDGA2 (MAM domain containing glycosylphosphatidylinositol anchor 2), endogenous mouse (mouse (endogenous in mouse brain)) (UniProt P60755)
T1 sequence: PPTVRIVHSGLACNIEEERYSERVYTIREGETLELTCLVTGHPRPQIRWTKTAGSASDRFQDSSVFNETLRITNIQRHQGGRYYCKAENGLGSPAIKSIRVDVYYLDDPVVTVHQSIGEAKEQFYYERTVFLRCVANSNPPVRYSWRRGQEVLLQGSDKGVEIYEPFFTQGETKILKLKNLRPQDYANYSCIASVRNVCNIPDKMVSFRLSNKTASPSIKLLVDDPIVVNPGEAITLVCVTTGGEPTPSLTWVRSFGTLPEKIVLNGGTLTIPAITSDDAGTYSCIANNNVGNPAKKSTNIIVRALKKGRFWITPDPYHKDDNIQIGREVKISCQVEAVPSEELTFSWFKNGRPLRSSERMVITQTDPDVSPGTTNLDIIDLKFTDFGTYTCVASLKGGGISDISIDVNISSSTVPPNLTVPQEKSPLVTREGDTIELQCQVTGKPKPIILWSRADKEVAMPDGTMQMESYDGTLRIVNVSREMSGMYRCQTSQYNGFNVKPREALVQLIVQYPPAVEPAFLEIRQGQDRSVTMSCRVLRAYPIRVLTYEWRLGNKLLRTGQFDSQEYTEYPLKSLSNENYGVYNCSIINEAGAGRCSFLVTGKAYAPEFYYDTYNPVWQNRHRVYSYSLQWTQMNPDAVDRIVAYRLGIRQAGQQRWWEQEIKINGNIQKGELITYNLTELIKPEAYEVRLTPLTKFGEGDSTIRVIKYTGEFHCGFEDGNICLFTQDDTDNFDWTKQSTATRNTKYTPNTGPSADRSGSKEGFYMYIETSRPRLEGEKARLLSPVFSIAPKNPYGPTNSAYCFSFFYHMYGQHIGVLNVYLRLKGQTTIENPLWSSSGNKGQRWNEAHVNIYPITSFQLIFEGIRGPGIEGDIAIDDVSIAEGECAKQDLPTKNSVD
Assay: co-IP; WT mouse brain lysates, IP with an anti-MDGA2 antibody or control IgG, immunoblot

“mature BDNF (mBDNF), endogenous mouse (ligand)” was tested, and the binding was “no binding”.
